Reference: the supplement of paper PMC3334620
In all, about 33,000 sequences were measured (“E-score (-0.5 to 0.5)”: median about -0.015, highest 2% from about 0.3 on). Some of the results follow.

Target: T1, Abf1 (UniProt P14164)
T1 sequence: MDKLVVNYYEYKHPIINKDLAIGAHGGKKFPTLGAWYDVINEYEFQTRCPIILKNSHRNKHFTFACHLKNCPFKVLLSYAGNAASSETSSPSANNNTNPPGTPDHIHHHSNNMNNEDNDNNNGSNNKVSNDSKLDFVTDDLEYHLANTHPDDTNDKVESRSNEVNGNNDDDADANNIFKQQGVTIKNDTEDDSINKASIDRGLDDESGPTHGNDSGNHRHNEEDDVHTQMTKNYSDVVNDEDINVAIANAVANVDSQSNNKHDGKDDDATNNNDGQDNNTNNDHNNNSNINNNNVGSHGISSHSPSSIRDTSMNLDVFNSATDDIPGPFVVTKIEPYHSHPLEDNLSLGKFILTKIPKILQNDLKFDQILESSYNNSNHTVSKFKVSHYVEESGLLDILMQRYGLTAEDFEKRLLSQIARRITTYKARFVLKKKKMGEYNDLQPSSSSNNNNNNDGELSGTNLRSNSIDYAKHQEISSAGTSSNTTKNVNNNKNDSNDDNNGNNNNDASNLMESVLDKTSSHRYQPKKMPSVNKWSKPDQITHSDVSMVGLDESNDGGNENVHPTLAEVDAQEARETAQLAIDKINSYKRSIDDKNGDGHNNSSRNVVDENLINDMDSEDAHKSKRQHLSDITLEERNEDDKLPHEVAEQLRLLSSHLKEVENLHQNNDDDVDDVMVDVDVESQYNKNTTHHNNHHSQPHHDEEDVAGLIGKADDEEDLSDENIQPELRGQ
Test: PBM E-score (8-mer binding enrichment) (E-score (-0.5 to 0.5)); higher = stronger / more preferred TF binding
Conditions: protein concentration: 200 nM; construct: GST-full length
Description: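 Universal 'all 10-mer' protein binding microarrays (Agilent AMADID 015681) probed with GST-tagged S. cerevisiae TFs (full-length or DBD) made by in vitro transcription/translation (PURExpress), about 100-200 nM. Bound TF was detected with fluorescent anti-GST. Each ungapped 8-mer (which stands for itself and its reverse complement) is scored by the PBM enrichment score (E-score), a modified Wilcoxon-Mann-Whitney statistic from -0.5 to +0.5, computed with the Universal PBM Analysis Suite. Scale: above 0.35 generally sequence-specific binding.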

Row | Sequence | PBM E-score
1 | TATGATCA | 0.309
2 | CGTTAAAC | 0.13
3 | CACTAAAA | 0.0572
4 | CCCTTAGC | -0.268
5 | AGGATCTA | -0.0972
6 | GGAAAAGA | -0.312
7 | ATTACGGA | 0.303
8 | AATCCCGT | 0.14
9 | GATGTAAA | 0.185
10 | TCGTAACA | 0.265
11 | GGCCGCAC | -0.0964
12 | ACTCAGGA | -0.091
13 | GCCGCGCA | -0.208
14 | AAAACGTG | 0.111
15 | AAGATCGG | -0.163
16 | GCGGTAAC | -0.0659
17 | AACGAAGA | 0.188
18 | CTCCTTGC | -0.28
19 | GGCCGAAA | -0.0983
20 | AGAATGGG | -0.166
21 | AAACGGTC | 0.187
22 | CCTATGGC | -0.116
23 | ACTCAGGG | -0.221
24 | CGAGCGCG | -0.0408
25 | GGACACAC | -0.103

Row | Sequence | PBM E-score
26 | CACTAGGG | -0.0458
27 | AGTACAAC | 0.0712
28 | CAATGCGG | -0.281
29 | AAGTATAG | -0.0205
30 | CCTAGTTC | -0.177
31 | AATCGACA | 0.122
32 | ATTGCGAG | 0.00807
33 | TCTGGGAA | 0.0332
34 | AGCTACCT | -0.177
35 | TATTTTCA | 0.0674
36 | ACTCGTCG | 0.149
37 | CTGCTCCA | -0.226
38 | AGCTTTTG | 0.029
39 | TCGTCGAA | 0.355
40 | GTTCTAGA | 0.109
41 | CACACCAA | -0.0551
42 | GCCACCAA | 0.0672
43 | ATGTCATA | 0.176
44 | GAGTCTTA | -0.148
45 | GGTCTCCA | -0.0422
46 | CCTTGACG | -0.0078
47 | AATTACGA | 0.186
48 | AGCCGCGC | -0.169
49 | AGAGCGTG | -0.00853
50 | CCATGACC | -0.127

Row | Sequence | PBM E-score
51 | AATGAAGA | -0.0408
52 | CCTTCCAG | -0.184
53 | GGCCCGCA | -0.191
54 | AGATGCCA | -0.0719
55 | ATGCGAAA | 0.0768
56 | CTTATCTA | 0.14
57 | AGGTGGCC | -0.195
58 | CACAAGGG | -0.242
59 | ACACAGGT | -0.0725
60 | ATAAGTAG | 0.216
61 | AGTGGGAC | -0.175
62 | AGAACATG | 0.162
63 | GACGTCCC | 0.0416
64 | CCAACGGG | -0.136
65 | CGGTATCA | 0.204
66 | CATGTATC | 0.183
67 | GCCCTTCA | -0.0402
68 | TGCTTAAA | 0.0395
69 | AGGTCGGA | -0.0824
70 | AGCGTAAT | 0.00725
71 | TAAACCAA | 0.0491
72 | ATTTACTC | 0.145
73 | TCCAGTCA | -0.132
74 | GATTTAGC | 0.145
75 | AGGATGTG | -0.0696

An excerpt of these results, with tabs:
Row	Sequence	PBM E-score
5	AGGATCTA	-0.0972
6	GGAAAAGA	-0.312
7	ATTACGGA	0.303
8	AATCCCGT	0.14
9	GATGTAAA	0.185
10	TCGTAACA	0.265
11	GGCCGCAC	-0.0964
13	GCCGCGCA	-0.208
14	AAAACGTG	0.111
15	AAGATCGG	-0.163
17	AACGAAGA	0.188
18	CTCCTTGC	-0.28
22	CCTATGGC	-0.116
25	GGACACAC	-0.103
28	CAATGCGG	-0.281
34	AGCTACCT	-0.177
38	AGCTTTTG	0.029
39	TCGTCGAA	0.355
40	GTTCTAGA	0.109
44	GAGTCTTA	-0.148
45	GGTCTCCA	-0.0422
46	CCTTGACG	-0.0078
47	AATTACGA	0.186
48	AGCCGCGC	-0.169
50	CCATGACC	-0.127
51	AATGAAGA	-0.0408
53	GGCCCGCA	-0.191
55	ATGCGAAA	0.0768
56	CTTATCTA	0.14
57	AGGTGGCC	-0.195
58	CACAAGGG	-0.242
61	AGTGGGAC	-0.175
62	AGAACATG	0.162
64	CCAACGGG	-0.136
68	TGCTTAAA	0.0395
70	AGCGTAAT	0.00725
71	TAAACCAA	0.0491
72	ATTTACTC	0.145
73	TCCAGTCA	-0.132
74	GATTTAGC	0.145
75	AGGATGTG	-0.0696

Later entries

Row | Sequence | PBM E-score
76 | ACGGGCCG | 0.147
77 | CGGCTGCC | -0.0227
78 | GGAGACCC | -0.289
79 | CTTCGGCC | -0.0762
80 | ATAGACAT | -0.0673
81 | GCATGACA | 0.207
82 | CTGCGTTA | -0.0882
83 | AACCAAAT | 0.176
84 | GATTGCCA | -0.0369
85 | AGTCTTCA | -0.0415
86 | AGTAGGGG | -0.163
87 | AAAGTTGT | 0.185
88 | AACGAGGC | 0.164
89 | ATCCACAG | 0.139
90 | ATTATGAG | 0.0866
91 | CGAACGGC | 0.233
92 | ATTAGACG | 0.199
93 | ATTGAATA | 0.27
94 | GAGCAACC | -0.0662
95 | GGCTGTGA | -0.0944
96 | CCCCCGGG | -0.275
97 | TCGTGACA | 0.354
98 | CATACCTA | -0.0506
99 | ACGTGCCG | 0.0127
100 | CAATAGAG | -0.114

Part of the list above, set out differently:
GGCTGTGA
  PBM E-score = -0.0944
CCCCCGGG
  PBM E-score = -0.275
TCGTGACA
  PBM E-score = 0.354
CATACCTA
  PBM E-score = -0.0506

(further entries)

Row | Sequence | PBM E-score
101 | AGCACGGG | -0.0277
102 | ACCGAAGG | -0.192
103 | CGCGTAGA | -0.0598
104 | AGAAGTAT | 0.132
105 | GAGGTGGA | -0.0921
106 | GCCGAGGA | -0.0936
107 | AGAAGGTC | 0.0488
108 | GGAGCAGA | -0.276
109 | CGACAGAG | 0.189
110 | AAGACTGG | -0.188
111 | CGAGTCCG | 0.0426
112 | TACTAAGA | 0.123
113 | AGATAGGC | -0.205
114 | TGGAGCCA | -0.215
115 | CCTCGTCG | 0.175
116 | CAGGGGTC | -0.0531
117 | ACCACAGC | -0.171
118 | AACTCGGC | 0.123
119 | GGGTCCAC | -0.15
120 | ACTGCAGA | -0.0825
121 | CTGCGGAC | -0.0224
122 | CTAGTTAA | 0.0372
123 | CTGGAAAA | -0.164
124 | CCAGCATA | -0.139
125 | ACACTTCA | -0.0877

Row | Sequence | PBM E-score
126 | AGTCAAAA | 0.0486
127 | CTTCAGGA | -0.131
128 | AGAGCTCG | 0.137
129 | AGGCTTGC | -0.167
130 | GTCTCGGA | -0.0432
131 | CCTGATAG | -0.281
132 | ATCGGTCC | -0.295
133 | TCCTAGGA | -0.244
134 | TGGGATAA | -0.0897
135 | ACTTTACC | 0.0126
136 | TATGCACA | 0.018
137 | GATATTCC | 0.226
138 | GGCGCGTA | -0.136
139 | CCCCCCTA | -0.259
140 | CGCATATA | -0.0268
141 | ATGATTCC | 0.0729
142 | GAGTCGAA | -0.0294
143 | CTTCATGC | -0.154
144 | AGCGTCAC | -0.00719
145 | AGATCAGG | -0.252
146 | GTTCTATA | 0.103
147 | CTTGACCC | -0.0886
148 | ACCTCAAG | -0.13
149 | CATTGAAC | 0.147
150 | TAAAGTAA | 0.0709

Row | Sequence | PBM E-score
151 | AATGACAT | 0.39
152 | CGCTAAAA | 0.11
153 | GTGCGCAC | 0.15
154 | CCCATAGA | -0.302
155 | AAGAGCAA | -0.196
156 | ACATCGGT | -0.00711
157 | AAGTGACG | 0.352
158 | GAAAGTAA | 0.00787
159 | ACCGCCAG | -0.104
160 | CTTCTTTA | 0.12
161 | CACACGAA | 0.341
162 | AAACCCGC | 0.131
163 | ATGGACTA | -0.0421
164 | CGTATGAA | 0.426
165 | ATGCAATC | -0.0506
166 | ATTCCAAT | 0.0599
167 | AAGGCGCG | -0.195
168 | CAGGCCGC | -0.0425
169 | GTAAATTA | -0.0489
170 | ACCTTCAG | -0.109
171 | ACCAGAAG | -0.0311
172 | ACAGACTA | -0.14
